The list does not hold the whole screen: it gathers tests that were run many times, whatever their T/C, doses with no T/C, and many T/C values between a quarter and a half above the control. Other doses and runs of a compound stand elsewhere. T/C is the treated group as % of the vehicle group. Some entries give survivors of the animals treated and no T/C: the source holds a T/C of zero for them, seemingly a mark for toxic or unscored doses. Some doses without a T/C left all or most animals alive at the check, yet need not have been tolerated: the source hardly ever lists a survival T/C far under the control, and the zero likely stands for such cases as well. Counts of survivors are from the toxicity check (mostly the fifth day) where no day follows; animals may have died later. Schedule codes are those of the source, taken here to give the interval after Q, in days (D) or hours (H), and the number of doses after X. Some schedules carry Z or #; the key to these is not given. Where survival is the endpoint, the PubChem record calls one and a half times the control and up active, and a quarter to a half above the control has no call in these data; cut-offs in other NCI protocols can differ.
Tested on: L1210 leukemia ip in BDF1 mice, survival T/C
Assay: NCI In Vivo Anticancer Drug Screen. Data for tumor model L1210 Leukemia (intraperitoneal) in B6D2F1 (BDF1) mice
Details: T/C endpoint: mean survival time, higher T/C = longer survival
[1] = dose: 100.0 mg/kg/injection, schedule: Q04DX003 (ip), vehicle: saline
[2] = dose: 100.0 mg/kg/injection, schedule: Q01DX001 (ip), vehicle: carboxymethylcellulose (CMC)
[3] = dose: 200.0 mg/kg/injection, schedule: Q01DX001 (ip), vehicle: carboxymethylcellulose (CMC)
[4] = dose: 400.0 mg/kg/injection, schedule: Q01DX001 (ip), vehicle: carboxymethylcellulose (CMC)
[5] = dose: 200.0 mg/kg/injection, schedule: Q01DX009 (ip), vehicle: Klucel (hydroxypropylcellulose) (HPC)
[6] = dose: 400.0 mg/kg/injection, schedule: Q01DX009 (ip), vehicle: Klucel (hydroxypropylcellulose) (HPC)
[7] = dose: 100.0 mg/kg/injection, schedule: Q01DX001 (ip), vehicle: saline
[8] = dose: 200.0 mg/kg/injection, schedule: Q01DX001 (ip), vehicle: saline
[9] = dose: 400.0 mg/kg/injection, schedule: Q01DX001 (ip), vehicle: saline
[10] = dose: 200.0 mg/kg/injection, schedule: Q04DX002 (ip), vehicle: saline
[11] = dose: 400.0 mg/kg/injection, schedule: Q04DX003 (ip), vehicle: Klucel (hydroxypropylcellulose) (HPC)
[12] = dose: 100.0 mg/kg/injection, schedule: Q01DX009 (ip), vehicle: Klucel (hydroxypropylcellulose) (HPC)

How did the survivor count [1] turn out when COc1ccc2c(C(=O)N(CCCl)CCCl)cc3cc(OC)c(OC)cc3c2c1 was run?
The survivor count was 4 of 4.

Which survivor count [2] does the source give for c1ccc(OCCN2CC2)nc1 here?
Its survivor count is 2 of 6.

What about the survivor count [3] of the same compound?
Its survivor count is 0 of 6.

And the survivor count [4]?
The survivor count was 0 of 6.

With COc1ccc(OC)c(NC(=O)Sc2ccccc2O)c1 as the compound, how does the survivor count [5] read?
Its survivor count is 4 of 6.

What about the survivor count [6] of the same compound?
The survivor count was 1 of 6.

For O=C1c2cccc([N+](=O)[O-])c2C(=O)N1c1ncn[nH]1, which T/C [7] is on record?
The T/C was 135 % of control.

What about the survivor count (dose: 150.0 mg/kg/injection, schedule: Q01DX001 (ip), vehicle: saline) of the same compound?
The survivor count was 4 of 4.

With CSC(=S)NNC(=O)c1ccc([N+](=O)[O-])cc1 as the compound, how does the survivor count (dose: 25.0 mg/kg/injection, schedule: Q04DX003 (ip), vehicle: saline sonified) read?
The survivor count was 6 of 6.

What about the survivor count [1] of the same compound?
The survivor count was 3 of 6.

And the survivor count (dose: 200.0 mg/kg/injection, schedule: Q04DX003 (ip), vehicle: saline)?
Its survivor count is 2 of 6.

What about the survivor count (dose: 400.0 mg/kg/injection, schedule: Q04DX003 (ip), vehicle: saline) of the same compound?
The survivor count was 0 of 6.

Which survivor count (dose: 300.0 mg/kg/injection, schedule: Q01DX001 (ip), vehicle: other) does the source give for O=C1c2cccc3cccc(c23)C1(Br)Br here?
The survivor count was 2 of 5.

Which results are given for N#CCc1ccc(Cl)c(Cl)c1?
survivor count [7]: 3 of 6; survivor count [8]: 0 of 6; survivor count [9]: 0 of 6

Which survivor count (dose: 600.0 mg/kg/injection, schedule: Q01DX015 (ip), vehicle: saline) does the source give for SCc1ccccn1 here?
The survivor count was 0 of 6.

And the survivor count (dose: 900.0 mg/kg/injection, schedule: Q01DX015 (ip), vehicle: saline)?
Its survivor count is 0 of 6.

Which survivor count (dose: 240.0 mg/kg/injection, schedule: Q01DX Z (ip), vehicle: methylcellulose (MC)) does the source give for NC(N)=NN=C1CCC(C2CCCCC2)CC1 (stereo not given) here?
The survivor count was 0 of 6.

And the survivor count (dose: 240.0 mg/kg/injection, schedule: Q01DX Z (oral), vehicle: methylcellulose (MC))?
The survivor count was 6 of 6.

And the survivor count (dose: 420.0 mg/kg/injection, schedule: Q01DX Z (ip), vehicle: methylcellulose (MC))?
The survivor count was 1 of 6.

And the survivor count (dose: 600.0 mg/kg/injection, schedule: Q01DX Z (ip), vehicle: methylcellulose (MC))?
The survivor count was 0 of 6.

How did the survivor count [10] turn out when COC(=O)C(C)CSCc1ccccc1 (stereo not given) was run?
Its survivor count is 3 of 3.

With O=S(=O)(Nc1ccc(C(F)(F)F)cc1)c1ccc(C(F)(F)F)cc1 as the compound, how does the survivor count [11] read?
Its survivor count is 0 of 6.

How did the survivor count (dose: 50.0 mg/kg/injection, schedule: Q04DX003 (ip), vehicle: Klucel (hydroxypropylcellulose) (HPC)) turn out when CC(=O)Nc1ccc(C(=O)CCl)cc1 was run?
The survivor count was 4 of 6.

What about the survivor count [2] of the same compound?
The survivor count was 2 of 4.

What about the survivor count [12] of the same compound?
Its survivor count is 0 of 6.

What about the survivor count (dose: 100.0 mg/kg/injection, schedule: Q04DX003 (ip), vehicle: Klucel (hydroxypropylcellulose) (HPC)) of the same compound?
Its survivor count is 6 of 6.

What about the survivor count [3] of the same compound?
The survivor count was 0 of 4.

And the survivor count [5]?
Its survivor count is 0 of 6.

What about the survivor count (dose: 200.0 mg/kg/injection, schedule: Q04DX003 (ip), vehicle: Klucel (hydroxypropylcellulose) (HPC)) of the same compound?
Its survivor count is 0 of 6.

What about the survivor count [4] of the same compound?
The survivor count was 0 of 4.

And the survivor count [6]?
The survivor count was 0 of 6.

What about the survivor count [11] of the same compound?
The survivor count was 0 of 6.

For CC(C)N(CCC(=O)CC12CC3CC(CC(C3)C1)C2)C(C)C, which survivor count [10] is on record?
The survivor count was 0 of 3.

And the survivor count (dose: 400.0 mg/kg/injection, schedule: Q04DX002 (ip), vehicle: saline)?
The survivor count was 0 of 3.

Cn1nnn2c(-c3ccccc3)nnc12 was tested. Which survivor count (dose: 400.0 mg/kg/injection, schedule: Q01DX009 (ip), vehicle: saline with Tween-80) did it give?
The survivor count was 3 of 6.

O=C1C=C(O)C(c2ccccc2)=CC1=O was tested. Which survivor count (dose: 400.0 mg/kg/injection, schedule: Q01DX001 (ip), vehicle: water) did it give?
Its survivor count is 0 of 6.

Which results are given for O=[N+]([O-])c1cccc(S(=O)(=O)OCn2ncc3ccc([N+](=O)[O-])cc32)c1?
survivor count (dose: 80.0 mg/kg/injection, schedule: Q01DX001 (ip), vehicle: saline): 1 of 4; survivor count [7]: 0 of 4; survivor count [8]: 0 of 4; survivor count [9]: 0 of 4

How did the survivor count (dose: 50.0 mg/kg/injection, schedule: Q01DX009 (ip), vehicle: Klucel (hydroxypropylcellulose) (HPC)) turn out when c1ccc([P+](COC[P+](c2ccccc2)(c2ccccc2)c2ccccc2)(c2ccccc2)c2ccccc2)cc1 was run?
The survivor count was 0 of 3.

And the survivor count [12]?
The survivor count was 0 of 3.

What about the survivor count [5] of the same compound?
Its survivor count is 0 of 3.

Source: PubChem BioAssay AID248 (DTP/NCI, 2004)
